Results from US9296775B2, “Pyrazole compounds” (Eli Lilly and Company, priority 2012, dated 2016).
For at least one compound, name, drawing or mass did not settle the structure.

Chains of the proteins cited; added tags and fusions are not shown. Lines headed by an entry give the natural chain unless they say otherwise; changes in a name come on top.
UniProt P13866: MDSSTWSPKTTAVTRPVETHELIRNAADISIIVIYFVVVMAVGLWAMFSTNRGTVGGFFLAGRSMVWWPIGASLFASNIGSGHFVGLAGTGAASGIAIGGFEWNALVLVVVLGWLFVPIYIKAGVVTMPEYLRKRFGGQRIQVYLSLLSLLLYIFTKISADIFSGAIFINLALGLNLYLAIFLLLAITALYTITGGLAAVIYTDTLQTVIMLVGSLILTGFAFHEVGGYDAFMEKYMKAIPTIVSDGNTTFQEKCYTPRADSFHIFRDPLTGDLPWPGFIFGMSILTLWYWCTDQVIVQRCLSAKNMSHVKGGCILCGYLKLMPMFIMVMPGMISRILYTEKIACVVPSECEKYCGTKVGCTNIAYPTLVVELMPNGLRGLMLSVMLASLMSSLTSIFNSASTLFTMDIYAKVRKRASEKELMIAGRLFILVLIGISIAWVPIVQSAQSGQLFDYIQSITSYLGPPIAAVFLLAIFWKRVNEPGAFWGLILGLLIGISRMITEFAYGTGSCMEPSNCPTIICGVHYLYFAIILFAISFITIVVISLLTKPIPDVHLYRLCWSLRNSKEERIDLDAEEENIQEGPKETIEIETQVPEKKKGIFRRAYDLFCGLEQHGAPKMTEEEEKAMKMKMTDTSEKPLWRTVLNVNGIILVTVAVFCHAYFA

Experiments:
[1] = target: human SGLT1 (Homo sapiens (Human), UniProt P13866); test: 14C-AMG uptake assay in CHO-K1 cells expressing human SGLT1; assay type: cell-based; conditions: in vitro, human and mouse SGLT1 vs human SGLT2
[2] = tested on: male Sprague Dawley rats with STZ-induced diabetes; test: Mixed meal tolerance test in male rats with streptozotocin induced diabetes; assay type: in vivo, rat; conditions: result in words; Example 1 10 and 30 mg/kg, Acarbose 60 mg/kg
Protocol: Rats which have been administered streptozotocin (STZ) develop diabetes mellitus. Agents which modulate glucose levels in these animals are believed to be useful in the treatment of diabetes in humans.
The test compound is formulated by adding a vehicle of 1% hydroxyethylcellulose (HEC), 0.25% Tween® 80 w/ antifoam 0.05% to preweighed test compound to make a 2.5 mg/ml solution. The mixture is probe sonicated for approximately 30 seconds. The resulting solution is used as a stock solution, from which the lower concentration dose solutions are prepared by dilution with the vehicle. STZ, 45 mg/kg, is formulated by dissolving in 0.1M Citrate buffer in 3 ml aliquots and stored in the dark on ice, when not being administered. A high fat content mixed meal (Bio-Serv® Rodent Diet F3282 High Fat) comprising Fat Calories (60%), Carbohydrate Calories (26%) and Protein Calories (15%) is utilized. Single housed Sprague Dawley rats are allowed to acclimate for a period of 3 to 7 days.
In an effort to ensure that the animals have not recently fed, STZ is administered in the afternoon, approximately six hours into the light cycle (lights on 6 am, lights off 6 pm). The animals are anesthetized with isoflurane and STZ is delivered via tail vein injection. Once animals regain consciousness, they are returned to housing and allowed to recover for 7 days. […]

[3] = tested on: normal glycemic C57Bl/6 mouse; test: Oral glucose tolerance test (OGTT); assay type: in vivo; conditions: 0.3-10 mg/kg, result in words
Protocol: The test compound is formulated by adding a vehicle of 1% hydroxyethylcellulose, 0.25% Tween® 80 w/ antifoam 0.05% to preweighed test compound to make a 1 mg/ml solution. The mixture is probe sonicated for approximately 30 seconds. The resulting solution is used as a stock solution from which the lower concentration dose solutions are prepared by dilution with the vehicle.
Single housed C57Bl/6 mice are fasted overnight by removing access to food the late afternoon before test day. The following morning, the mice are weighed and a single fasting blood sample is taken by tail snip to measure glucose by glucometer (Roche AccuChek). Study groups (n=5) are determined based on fasted blood glucose and comprise preferably animals in the range of 80-100 mg/dl glucose.
After grouping, the first mouse is orally gavaged with 10 ml/kg test compound preparation and a timer started. Each subsequent animal is dosed a minute and a half apart. Three hours after the first compound treatment is started, a baseline blood sample is taken for measuring glucose (from the first animal, via tail snip). The animal is then immediately given an oral dose of 50% dextrose (Hospira) at 3 g/kg. Blood samples are taken for glucose, exactly a minute and half apart, by tail vein so that blood is collected in each animal at 20, 40, 60 and 120 minutes after the dextrose dose.

Cc1cc(/C=C/CCN2CCCC3(CCNCC3)C2)ccc1Cc1c(O[C@@H]2O[C@H](CO)[C@@H](O)[C@H](O)[C@H]2O)n[nH]c1C(C)C [Example 1, 4-{4-[(1E)-4-(2,9-diazaspiro[5.5]undec-2-yl)but-1-en-1-yl]-2-methylbenzyl}-5-(propan-2-yl)-1H-pyrazol-3-yl beta-D-glucopyranoside]
potency at SGLT1 versus human SGLT2 [1]: more potent at human and mouse SGLT1 than at human SGLT2
glucose baseline adjusted AUCs in the MTT [2]: dose dependent decrease
glucose in the MTT compared to the vehicle controls [2]: significantly and dose dependently decreases
baseline adjusted glucose area under the curve (AUC) during an OGTT [3]: dose dependent decrease
glucose excursion following an oral bolus of 50% dextrose [3]: dose dependent decrease
